Reference: the supplement of paper PMC10849652
Some of the results follow.

By UniProt entry, the sequences of proteins in these tests, tags left out. Where a name states a change or a piece, a line headed by the entry shows the natural chain unless it says otherwise.
UniProt Q9Y6I3: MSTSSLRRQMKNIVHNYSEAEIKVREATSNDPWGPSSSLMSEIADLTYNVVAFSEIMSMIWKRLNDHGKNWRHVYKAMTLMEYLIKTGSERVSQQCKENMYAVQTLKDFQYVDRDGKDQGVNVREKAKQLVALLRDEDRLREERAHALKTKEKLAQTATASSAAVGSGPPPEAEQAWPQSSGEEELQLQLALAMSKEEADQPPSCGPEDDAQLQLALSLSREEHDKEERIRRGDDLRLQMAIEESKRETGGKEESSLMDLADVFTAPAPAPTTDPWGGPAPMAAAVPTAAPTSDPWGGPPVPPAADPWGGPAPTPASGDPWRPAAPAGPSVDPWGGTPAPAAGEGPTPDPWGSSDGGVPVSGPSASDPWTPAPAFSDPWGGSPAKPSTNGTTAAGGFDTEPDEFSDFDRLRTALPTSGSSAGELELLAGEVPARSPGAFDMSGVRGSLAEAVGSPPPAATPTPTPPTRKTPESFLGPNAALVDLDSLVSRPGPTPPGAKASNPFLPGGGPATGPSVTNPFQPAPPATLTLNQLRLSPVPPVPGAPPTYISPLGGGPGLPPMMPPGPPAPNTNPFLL
UniProt P07814: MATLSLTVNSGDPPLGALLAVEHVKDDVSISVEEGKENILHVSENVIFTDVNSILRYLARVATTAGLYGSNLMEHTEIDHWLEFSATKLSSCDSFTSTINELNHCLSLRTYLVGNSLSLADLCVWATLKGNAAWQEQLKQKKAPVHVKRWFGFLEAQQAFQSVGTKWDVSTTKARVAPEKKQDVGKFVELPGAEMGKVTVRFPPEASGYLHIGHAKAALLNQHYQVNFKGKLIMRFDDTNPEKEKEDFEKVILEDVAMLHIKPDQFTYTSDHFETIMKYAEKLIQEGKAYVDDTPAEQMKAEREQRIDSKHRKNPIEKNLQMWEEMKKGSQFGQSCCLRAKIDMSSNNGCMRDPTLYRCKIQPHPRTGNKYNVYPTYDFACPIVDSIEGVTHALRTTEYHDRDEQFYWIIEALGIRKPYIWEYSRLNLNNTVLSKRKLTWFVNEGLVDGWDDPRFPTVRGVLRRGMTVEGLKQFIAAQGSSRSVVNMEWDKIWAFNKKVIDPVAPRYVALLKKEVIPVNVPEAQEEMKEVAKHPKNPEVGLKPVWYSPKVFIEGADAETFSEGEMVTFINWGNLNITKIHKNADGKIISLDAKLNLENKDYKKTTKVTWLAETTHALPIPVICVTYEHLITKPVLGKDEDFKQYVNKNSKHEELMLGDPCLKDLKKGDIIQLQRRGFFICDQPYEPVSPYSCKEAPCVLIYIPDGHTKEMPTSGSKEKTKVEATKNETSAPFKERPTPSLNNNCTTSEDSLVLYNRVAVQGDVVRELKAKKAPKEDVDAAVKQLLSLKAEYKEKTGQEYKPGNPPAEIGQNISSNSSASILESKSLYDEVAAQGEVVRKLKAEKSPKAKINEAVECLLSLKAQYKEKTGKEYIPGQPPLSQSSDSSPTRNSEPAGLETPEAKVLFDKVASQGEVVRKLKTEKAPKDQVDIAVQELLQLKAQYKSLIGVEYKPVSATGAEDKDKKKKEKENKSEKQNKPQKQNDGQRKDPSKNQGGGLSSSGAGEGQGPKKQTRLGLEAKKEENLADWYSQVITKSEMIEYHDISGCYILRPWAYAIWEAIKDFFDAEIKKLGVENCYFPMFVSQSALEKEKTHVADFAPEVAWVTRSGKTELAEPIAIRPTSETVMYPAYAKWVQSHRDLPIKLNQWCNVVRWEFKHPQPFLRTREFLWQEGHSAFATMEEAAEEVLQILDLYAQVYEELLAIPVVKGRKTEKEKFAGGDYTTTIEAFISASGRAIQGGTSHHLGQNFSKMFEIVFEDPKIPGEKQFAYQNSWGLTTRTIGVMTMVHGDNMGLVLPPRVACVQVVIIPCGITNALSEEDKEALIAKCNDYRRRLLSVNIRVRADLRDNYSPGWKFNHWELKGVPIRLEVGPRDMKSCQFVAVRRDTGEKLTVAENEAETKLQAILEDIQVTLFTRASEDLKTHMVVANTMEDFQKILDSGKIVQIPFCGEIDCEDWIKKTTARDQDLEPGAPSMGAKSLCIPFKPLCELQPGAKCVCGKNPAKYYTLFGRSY
UniProt P28715: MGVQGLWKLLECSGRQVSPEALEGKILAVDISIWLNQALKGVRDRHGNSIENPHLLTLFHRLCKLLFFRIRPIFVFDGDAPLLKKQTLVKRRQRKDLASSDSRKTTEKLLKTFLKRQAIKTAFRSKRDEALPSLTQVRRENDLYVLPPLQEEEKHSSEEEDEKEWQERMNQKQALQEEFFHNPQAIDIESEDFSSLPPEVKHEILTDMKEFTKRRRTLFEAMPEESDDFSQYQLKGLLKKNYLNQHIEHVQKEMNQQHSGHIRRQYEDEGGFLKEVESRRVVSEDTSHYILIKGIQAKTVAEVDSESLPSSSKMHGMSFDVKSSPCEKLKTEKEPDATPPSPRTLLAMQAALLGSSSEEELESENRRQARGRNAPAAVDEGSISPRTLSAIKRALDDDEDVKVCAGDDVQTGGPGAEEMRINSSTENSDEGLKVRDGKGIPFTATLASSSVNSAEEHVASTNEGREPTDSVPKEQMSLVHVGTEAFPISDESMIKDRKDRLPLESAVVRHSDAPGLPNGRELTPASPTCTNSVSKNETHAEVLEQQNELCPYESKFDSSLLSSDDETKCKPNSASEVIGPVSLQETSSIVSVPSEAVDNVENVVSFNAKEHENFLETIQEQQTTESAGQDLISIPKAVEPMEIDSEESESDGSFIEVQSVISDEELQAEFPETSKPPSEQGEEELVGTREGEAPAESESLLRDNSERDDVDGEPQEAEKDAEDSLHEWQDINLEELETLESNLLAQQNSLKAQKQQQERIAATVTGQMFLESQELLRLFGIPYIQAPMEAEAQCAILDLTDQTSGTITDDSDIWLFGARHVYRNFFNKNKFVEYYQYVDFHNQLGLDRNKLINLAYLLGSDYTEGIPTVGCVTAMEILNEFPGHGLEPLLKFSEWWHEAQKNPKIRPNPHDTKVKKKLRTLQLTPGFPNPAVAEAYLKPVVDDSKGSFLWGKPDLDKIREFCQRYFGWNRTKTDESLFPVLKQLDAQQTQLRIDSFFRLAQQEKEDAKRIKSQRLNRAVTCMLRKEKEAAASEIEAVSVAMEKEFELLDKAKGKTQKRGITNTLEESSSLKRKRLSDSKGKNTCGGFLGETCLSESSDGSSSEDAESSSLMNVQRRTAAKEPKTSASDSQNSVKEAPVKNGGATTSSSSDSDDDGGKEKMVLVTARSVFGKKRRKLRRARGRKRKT
UniProt Q5RKV6, whole entry, looked up: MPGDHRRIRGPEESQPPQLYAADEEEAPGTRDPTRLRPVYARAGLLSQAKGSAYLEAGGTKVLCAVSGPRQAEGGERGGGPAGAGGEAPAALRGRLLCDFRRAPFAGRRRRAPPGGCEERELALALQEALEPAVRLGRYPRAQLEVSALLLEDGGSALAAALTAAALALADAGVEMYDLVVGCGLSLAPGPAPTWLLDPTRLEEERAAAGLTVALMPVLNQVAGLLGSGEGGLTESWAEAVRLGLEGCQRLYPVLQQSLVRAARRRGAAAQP
UniProt O95208: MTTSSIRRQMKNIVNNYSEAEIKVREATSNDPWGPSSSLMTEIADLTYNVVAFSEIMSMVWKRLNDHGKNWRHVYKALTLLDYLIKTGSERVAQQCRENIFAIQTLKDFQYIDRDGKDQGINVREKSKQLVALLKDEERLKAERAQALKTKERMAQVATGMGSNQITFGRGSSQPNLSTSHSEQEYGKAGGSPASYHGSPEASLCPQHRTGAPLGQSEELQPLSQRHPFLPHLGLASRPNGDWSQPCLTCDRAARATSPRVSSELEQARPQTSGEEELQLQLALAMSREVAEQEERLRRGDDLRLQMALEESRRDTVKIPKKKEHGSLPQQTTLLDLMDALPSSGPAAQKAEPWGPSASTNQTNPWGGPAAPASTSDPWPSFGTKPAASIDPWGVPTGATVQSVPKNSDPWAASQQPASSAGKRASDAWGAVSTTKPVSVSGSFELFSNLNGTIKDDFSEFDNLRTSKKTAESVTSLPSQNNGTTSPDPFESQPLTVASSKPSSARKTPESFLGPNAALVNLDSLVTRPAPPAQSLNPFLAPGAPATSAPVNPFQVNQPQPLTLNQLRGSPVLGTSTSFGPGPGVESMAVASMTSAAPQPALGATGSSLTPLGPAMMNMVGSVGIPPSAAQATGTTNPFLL
UniProt Q5W0V3: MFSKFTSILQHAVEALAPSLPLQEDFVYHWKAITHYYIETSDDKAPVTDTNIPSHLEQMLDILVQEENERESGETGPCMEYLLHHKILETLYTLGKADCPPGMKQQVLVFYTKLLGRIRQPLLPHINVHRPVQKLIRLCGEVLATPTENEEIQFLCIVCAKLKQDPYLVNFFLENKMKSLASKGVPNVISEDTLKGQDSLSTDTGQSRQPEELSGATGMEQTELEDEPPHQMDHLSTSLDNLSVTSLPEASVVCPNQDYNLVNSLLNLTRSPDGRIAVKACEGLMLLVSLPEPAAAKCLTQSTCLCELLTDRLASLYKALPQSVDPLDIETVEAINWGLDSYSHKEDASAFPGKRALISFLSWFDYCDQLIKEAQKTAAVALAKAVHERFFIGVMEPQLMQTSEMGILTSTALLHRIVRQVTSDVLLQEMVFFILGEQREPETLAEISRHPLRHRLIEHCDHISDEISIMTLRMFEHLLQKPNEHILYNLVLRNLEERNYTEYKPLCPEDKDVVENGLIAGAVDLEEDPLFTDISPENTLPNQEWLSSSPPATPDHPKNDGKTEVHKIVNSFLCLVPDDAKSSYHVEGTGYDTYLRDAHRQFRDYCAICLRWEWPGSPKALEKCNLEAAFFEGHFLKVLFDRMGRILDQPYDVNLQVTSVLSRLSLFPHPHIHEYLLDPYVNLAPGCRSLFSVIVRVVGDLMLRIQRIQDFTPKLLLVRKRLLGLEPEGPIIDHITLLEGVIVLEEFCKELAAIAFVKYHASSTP
UniProt Q01469, whole entry, looked up: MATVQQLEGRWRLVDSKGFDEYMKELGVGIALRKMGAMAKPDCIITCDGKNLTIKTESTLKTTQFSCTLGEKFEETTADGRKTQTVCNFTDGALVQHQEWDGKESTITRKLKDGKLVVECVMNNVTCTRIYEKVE
UniProt Q9Y3B2, whole entry, looked up: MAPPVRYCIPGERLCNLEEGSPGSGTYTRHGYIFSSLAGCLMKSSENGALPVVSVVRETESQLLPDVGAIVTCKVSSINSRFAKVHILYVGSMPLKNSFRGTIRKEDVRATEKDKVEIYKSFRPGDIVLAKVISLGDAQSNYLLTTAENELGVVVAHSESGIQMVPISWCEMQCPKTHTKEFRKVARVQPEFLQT
UniProt Q01780: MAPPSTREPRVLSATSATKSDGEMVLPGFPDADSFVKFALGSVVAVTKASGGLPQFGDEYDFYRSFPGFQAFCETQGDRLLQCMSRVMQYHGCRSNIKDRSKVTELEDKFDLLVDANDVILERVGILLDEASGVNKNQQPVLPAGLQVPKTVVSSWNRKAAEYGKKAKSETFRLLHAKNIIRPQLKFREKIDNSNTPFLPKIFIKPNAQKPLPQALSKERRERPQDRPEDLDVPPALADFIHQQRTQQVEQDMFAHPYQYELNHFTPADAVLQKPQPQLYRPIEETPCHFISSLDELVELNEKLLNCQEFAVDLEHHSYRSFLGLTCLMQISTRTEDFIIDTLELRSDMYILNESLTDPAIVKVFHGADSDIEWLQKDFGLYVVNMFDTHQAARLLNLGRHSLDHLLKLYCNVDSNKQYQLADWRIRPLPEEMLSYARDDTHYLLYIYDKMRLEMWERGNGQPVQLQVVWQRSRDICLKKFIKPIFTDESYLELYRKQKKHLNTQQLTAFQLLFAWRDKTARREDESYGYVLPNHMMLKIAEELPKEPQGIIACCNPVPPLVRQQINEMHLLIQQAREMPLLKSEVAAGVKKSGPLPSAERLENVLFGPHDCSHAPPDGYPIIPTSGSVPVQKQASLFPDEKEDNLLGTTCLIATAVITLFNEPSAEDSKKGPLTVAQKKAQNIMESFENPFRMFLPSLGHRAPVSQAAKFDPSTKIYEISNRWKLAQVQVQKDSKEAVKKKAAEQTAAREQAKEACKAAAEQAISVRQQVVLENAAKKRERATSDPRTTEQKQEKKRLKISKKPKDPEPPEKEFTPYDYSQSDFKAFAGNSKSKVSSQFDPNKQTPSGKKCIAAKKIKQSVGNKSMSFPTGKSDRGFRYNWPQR

Columns and labels:
Assay in all cases: log2 fold change, soluble protein after heating vs DMSO (PISA); higher = thermal stabilisation; K562 cells, 10 uM, 30 min; active = over 0.2 and 3.5 SD of the protein, either way, in both replicates (recomputed)
[1] = compound: CC1=C(C=C(C=C1)NC(=O)C2=CC(=CC=C2)C(C)(C)C#N)NC3=CC4=C(C=C3)N=CN(C4=O)C
Procedure, shortened: (§1)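 K562 cells at 2×10^6 cells/mL were given 10 μM compound for 30 min. Aliquots then went through 3 min of heating across 48°C-58°C, were pooled, and were extracted in PBS with 0.5% NP-40 at 4°C, and the supernatant after 21,000xg for 90 min was quantified by TMTpro 16plex LC-MS/MS with channel sums equalised. Thermal stability relative to control samples, from duplicates, is given as log2 fold change.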

[2] = compound: CC1=C(C=C(C=C1)NC(=O)C2=CC(=CC=C2)N(C)C)NC(=O)C3=CC=C(C=C3)O
Procedure, shortened: as §1

[3] = compound: CC1=CC=C(C=C1)SC2=C3C=C(SC3=CN=C2)C(=O)N
Procedure, shortened: as §1

[4] = compound: CC1=NC(=CC=C1)C2=C(N=C(N2)C(C)(C)C)C3=CC4=NC=CN=C4C=C3
Procedure, shortened: as §1

Nexturastat A = compound: CCCCN(Cc1ccc(C(=O)NO)cc1)C(=O)Nc1ccccc1 [Nexturastat A]
Procedure, shortened: as §1

vemurafenib = compound: CCCS(=O)(=O)Nc1ccc(F)c(C(=O)c2c[nH]c3ncc(-c4ccc(Cl)cc4)cc23)c1F [vemurafenib]
Procedure, shortened: as §1

[5] = compound: CCCS(=O)(=O)Nc1ccc(F)c(C(=O)c2c[nH]c3ncc(Cl)cc23)c1F
Procedure, shortened: as §1

[6] = compound: CCCc1cc(C)[nH]c(=O)c1CNC(=O)c1cc(-c2ccnc(N3CCN(C)CC3)c2)cc2c1cnn2C(C)C
Procedure, shortened: as §1

givinostat = compound: CCN(CC)Cc1ccc2cc(COC(=O)Nc3ccc(C(=O)NO)cc3)ccc2c1 [givinostat]
Procedure, shortened: as §1

barasertib = compound: CCN(CCCOc1ccc2c(Nc3cc(CC(=O)Nc4cccc(F)c4)[nH]n3)ncnc2c1)CCOP(=O)(O)O [barasertib]
Procedure, shortened: as §1

| Target | log2 fold change [1] | log2 fold change [2] | log2 fold change [3] | log2 fold change [4] | log2 fold change (Nexturastat A) | log2 fold change (vemurafenib) | log2 fold change [5] | log2 fold change [6] | log2 fold change (givinostat) | log2 fold change (barasertib) |
| --- | --- | --- | --- | --- | --- | --- | --- | --- | --- | --- |
| FAM120A isoform 6 (UniProt Q9NZB2) | inactive: 0.022 | inactive: 0.046 | inactive: -0.097 | inactive: -0.08 | inactive: 0.23 | inactive: -0.089 | inactive: -0.038 | inactive: 0.066 | inactive: -0.079 | inactive: -0.178 |
| EXOC8 (UniProt Q8IYI6) | inactive: 0.035 | inactive: -0.085 | inactive: 0.037 | inactive: 0.016 | inactive: -0.087 | inactive: 0.048 | inactive: 0.01 | inactive: -0.091 | inactive: 0.028 | inactive: 0.048 |
| ESRRA (UniProt P11474) | inactive: 0.078 | inactive: 0.024 | inactive: -0.041 | inactive: -0.118 | inactive: -0.035 | inactive: 0.022 | inactive: 0.05 | inactive: 0.136 | inactive: -0.019 | inactive: 0.002 |
| EPN1 (UniProt Q9Y6I3) | inactive: -0.002 | inactive: -0.059 | inactive: 0.041 | inactive: -0.029 | inactive: -0.026 | inactive: 0.05 | inactive: 0.032 | inactive: -0.005 | inactive: 0.036 | inactive: 0.021 |
| ERP29 (UniProt P30040) | inactive: -0.036 | inactive: 0 | inactive: -0.009 | inactive: 0.007 | inactive: -0.045 | inactive: -0.021 | inactive: -0.029 | inactive: 0.008 | inactive: -0.056 | inactive: -0.02 |
| ERO1A (UniProt Q96HE7) | inactive: 0.006 | inactive: 0.009 | inactive: -0.024 | inactive: -0.016 | inactive: -0.025 | inactive: -0.049 | inactive: -0.022 | inactive: -0.008 | inactive: -0.014 | inactive: -0.006 |
| EPS15L1 isoform 2 (UniProt Q9UBC2) | inactive: -0.004 | inactive: 0.003 | inactive: 0.004 | inactive: 0.028 | inactive: -0.012 | inactive: 0.009 | inactive: 0.1 | inactive: 0.009 | inactive: -0.003 | inactive: -0.001 |
| EPRS (UniProt P07814) | inactive: 0.043 | inactive: 0.007 | inactive: -0.017 | inactive: -0.079 | inactive: 0.353 | inactive: -0.016 | inactive: 0.019 | inactive: 0.128 | inactive: 0.068 | inactive: -0.021 |
| ETFA (UniProt P13804) | inactive: -0.028 | inactive: -0.015 | inactive: 0.027 | inactive: 0.022 | inactive: -0.082 | inactive: 0.028 | inactive: 0.014 | inactive: -0.021 | inactive: -0.084 | inactive: -0.006 |
| ERCC5 (UniProt P28715) | inactive: -0.115 | inactive: -0.106 | inactive: -0.116 | inactive: 0.101 | inactive: -0.077 | inactive: -0.062 | inactive: 0.009 | inactive: 0.037 | inactive: 0.005 | inactive: 0.071 |
| ERLIN2 (UniProt O94905) | inactive: -0.045 | inactive: -0.024 | inactive: 0.009 | inactive: -0.037 | inactive: 0.104 | inactive: -0.062 | inactive: 0.008 | inactive: 0.12 | inactive: 0.038 | inactive: -0.003 |
| EPHX2 (UniProt P34913) | inactive: 0.112 | inactive: 0.129 | inactive: 0.031 | inactive: -0.017 | inactive: 0.193 | inactive: -0.012 | inactive: -0.025 | inactive: -0.075 | inactive: -0.014 | inactive: -0.029 |
| EXOSC6 (UniProt Q5RKV6) | inactive: 0.039 | inactive: 0.025 | inactive: 0.053 | inactive: 0.025 | inactive: -0.015 | inactive: 0.017 | inactive: 0.018 | inactive: -0.029 | inactive: 0 | inactive: 0 |
| EPN2 (UniProt O95208) | inactive: -0.015 | inactive: 0.079 | inactive: -0.065 | inactive: -0.072 | inactive: -0.027 | inactive: -0.005 | inactive: -0.012 | inactive: -0.048 | inactive: -0.013 | inactive: -0.015 |
| FAM160B1 (UniProt Q5W0V3) | inactive: 0.033 | inactive: 0.128 | inactive: -0.019 | inactive: 0.051 | inactive: -0.023 | inactive: 0.149 | inactive: 0.034 | inactive: 0.014 | inactive: 0.016 | inactive: 0.109 |
| FADS3 (UniProt Q9Y5Q0) | inactive: 0.031 | inactive: -0.002 | inactive: -0.012 | inactive: 0.031 | inactive: -0.096 | inactive: 0.01 | inactive: 0.026 | inactive: -0.069 | inactive: -0.108 | inactive: 0.042 |
| EXOC2 (UniProt Q96KP1) | inactive: -0.03 | inactive: -0.017 | inactive: 0.051 | inactive: 0.027 | inactive: 0.058 | inactive: 0.041 | inactive: 0.062 | inactive: 0.037 | inactive: 0.177 | inactive: 0.056 |
| ERVK3-1, A0A0U1RQV1 | inactive: -0.041 | inactive: -0.075 | inactive: -0.03 | inactive: 0.023 | inactive: 0.811 | inactive: 0.218 | inactive: -0.033 | inactive: -0.055 | inactive: 0.011 | inactive: 0.077 |
| ERGIC2 (UniProt Q96RQ1) | inactive: 0.008 | inactive: 0.016 | inactive: -0.048 | inactive: 0.102 | inactive: -0.115 | inactive: 0.019 | inactive: 0.021 | inactive: -0.063 | inactive: 0.009 | inactive: 0.019 |
| FAH isoform 2 (UniProt P16930) | inactive: 0.043 | inactive: 0.061 | inactive: -0.023 | inactive: -0.007 | inactive: -0.171 | inactive: -0.046 | inactive: -0.02 | inactive: -0.104 | inactive: 0.057 | inactive: 0.015 |
| EPCAM (UniProt P16422) | inactive: 0.054 | inactive: -0.066 | inactive: -0.011 | inactive: -0.002 | inactive: -0.035 | inactive: 0.018 | inactive: 0.006 | inactive: 0.087 | inactive: 0.029 | inactive: -0.025 |
| EPB41L2 (UniProt O43491) | inactive: -0.002 | inactive: 0.001 | inactive: -0.005 | inactive: -0.007 | inactive: -0.02 | inactive: 0.016 | inactive: -0.027 | inactive: -0.06 | inactive: 0.003 | inactive: -0.005 |
| ETFB (UniProt P38117) | inactive: 0.007 | inactive: -0.019 | inactive: -0.028 | inactive: 0.044 | inactive: -0.041 | inactive: -0.003 | inactive: -0.038 | inactive: 0.03 | inactive: -0.01 | inactive: 0.048 |
| FABP5 (UniProt Q01469) | inactive: -0.011 | inactive: -0.032 | inactive: -0.005 | inactive: -0.01 | inactive: -0.09 | inactive: 0.068 | inactive: 0.152 | inactive: -0.113 | inactive: -0.045 | inactive: 0.002 |
| ERP44 (UniProt Q9BS26) | inactive: 0.006 | inactive: 0.008 | inactive: -0.008 | inactive: -0.019 | inactive: -0.034 | inactive: -0.007 | inactive: -0.045 | inactive: 0.014 | inactive: -0.028 | inactive: 0.023 |
| EXOSC1 (UniProt Q9Y3B2) | inactive: 0.015 | inactive: -0.086 | inactive: -0.005 | inactive: -0.006 | inactive: 0.17 | inactive: 0.014 | inactive: 0.037 | inactive: 0.062 | inactive: 0.082 | inactive: 0.012 |
| EXOSC3 (UniProt Q9NQT5) | inactive: -0.004 | inactive: -0.062 | inactive: -0.002 | inactive: 0.019 | inactive: 0.046 | inactive: 0.041 | inactive: -0.041 | inactive: -0.029 | inactive: 0.043 | inactive: -0.005 |
| F11R (UniProt Q9Y624) | inactive: -0.026 | inactive: -0.026 | inactive: 0.052 | inactive: -0.027 | inactive: 0.012 | inactive: 0.008 | inactive: -0.03 | inactive: -0.033 | inactive: -0.024 | inactive: -0.016 |
| EXOSC10 (UniProt Q01780) | inactive: -0.537 | inactive: 0.061 | inactive: -0.07 | inactive: -0.123 | active: 0.762 | inactive: -0.221 | inactive: -0.18 | inactive: -0.168 | inactive: 0.147 | inactive: 0.036 |
| ERC1 (UniProt Q8IUD2) | inactive: 0.035 | inactive: -0.092 | inactive: 0.079 | inactive: -0.071 | inactive: 0.102 | inactive: 0.109 | inactive: 0.044 | inactive: -0.124 | inactive: 0.074 | inactive: 0.043 |

No new results follow: entries from further up.

| Target | log2 fold change [1] | log2 fold change [2] | log2 fold change [3] | log2 fold change [4] | log2 fold change (Nexturastat A) | log2 fold change (vemurafenib) | log2 fold change [5] | log2 fold change [6] | log2 fold change (givinostat) | log2 fold change (barasertib) |
| --- | --- | --- | --- | --- | --- | --- | --- | --- | --- | --- |
| ERO1A (UniProt Q96HE7) | inactive: 0.006 | inactive: 0.009 | inactive: -0.024 | inactive: -0.016 | inactive: -0.025 | inactive: -0.049 | inactive: -0.022 | inactive: -0.008 | inactive: -0.014 | inactive: -0.006 |
| EPS15L1 isoform 2 (UniProt Q9UBC2) | inactive: -0.004 | inactive: 0.003 | inactive: 0.004 | inactive: 0.028 | inactive: -0.012 | inactive: 0.009 | inactive: 0.1 | inactive: 0.009 | inactive: -0.003 | inactive: -0.001 |
